Some entries share one result that the patent states for a list of compounds. Some ranges recur; such a range may be that of the whole group of compounds.
Columns and labels:
Aphis fabae = experiment: Seed-dressing action against Aphis fabae (bean seeds); assay type: in vivo; conditions: bean seeds dressed with 0.1, 1 or 10 g active ingredient per kg of seed; evaluated 6 days after population
Myzus persicae = experiment: Seed-dressing action against Myzus persicae (sugar beet seeds); assay type: in vivo; conditions: sugar beet seeds dressed with 0.1, 1 or 10 g active ingredient per kg of seed; evaluated 2 and 7 days after population

## spinosad
Aphis fabae
  seed-dressing action (% action, reduction in population): good action (the good action corresponding to a destruction rate (mortality) of at least 50 to 60%)
Myzus persicae
  seed-dressing action (% action, reduction in population): good action (the good action corresponding to a destruction rate (mortality) of at least 50 to 60%)

— patent US6875727B2, “Use of macrolides in pest control” (Syngenta Crop Protection, Inc., priority 1998, dated 2005)
